Experimental data published in publication PMC5339724.
No constants are given. Whether binding was seen depends on the method and setting. Binding seen in cells or lysates may run through a third protein. Sequences can lack the tags named with a protein.

Target: T1, FLAG-tagged podocin (UniProt Q9NP85)
T1 sequence: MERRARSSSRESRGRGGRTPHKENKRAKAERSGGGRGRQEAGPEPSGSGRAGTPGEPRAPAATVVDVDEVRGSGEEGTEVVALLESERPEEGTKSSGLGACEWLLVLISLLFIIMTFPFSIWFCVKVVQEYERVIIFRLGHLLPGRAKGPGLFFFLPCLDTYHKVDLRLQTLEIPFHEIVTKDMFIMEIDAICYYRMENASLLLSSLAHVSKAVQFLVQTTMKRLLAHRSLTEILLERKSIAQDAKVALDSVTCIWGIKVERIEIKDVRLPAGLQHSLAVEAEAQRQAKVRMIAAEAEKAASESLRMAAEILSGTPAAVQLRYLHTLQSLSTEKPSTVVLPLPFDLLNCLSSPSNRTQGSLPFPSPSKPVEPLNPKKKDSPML
Test: co-IP; HEK293T cells co-transfected with FLAG-podocin and GFP-SNX9 constructs; lysate in 50 mM Tris pH 7.5, 150 mM NaCl, 1.0% Triton X100; anti-FLAG-M2 agarose overnight at 4 °C; blot with anti-GFP and anti-FLAG

## GFP-SNX9-ΔBAR (domain or fragment)
  binding: no binding

## GFP-SNX9-ΔPXBAR (domain or fragment)
  binding: no binding
